In the supplement of paper PMC6411743:
± gives the standard deviation of the averaged measurements. The entries are a selection whose mix differs from that of the whole data set.

Chains of the proteins cited; added tags and fusions are not shown. Lines headed by an entry give the natural chain unless they say otherwise; changes in a name come on top.
UniProt Q7Z7C8, whole entry: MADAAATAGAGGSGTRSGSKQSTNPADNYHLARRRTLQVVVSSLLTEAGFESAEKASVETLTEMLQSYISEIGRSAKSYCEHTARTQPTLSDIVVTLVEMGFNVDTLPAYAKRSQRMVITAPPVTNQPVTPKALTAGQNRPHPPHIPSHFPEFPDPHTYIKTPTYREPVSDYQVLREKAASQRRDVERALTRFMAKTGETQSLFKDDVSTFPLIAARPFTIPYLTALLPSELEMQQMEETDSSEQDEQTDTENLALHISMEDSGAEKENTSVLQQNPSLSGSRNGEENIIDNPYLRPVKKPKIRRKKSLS
UniProt Q96AP0: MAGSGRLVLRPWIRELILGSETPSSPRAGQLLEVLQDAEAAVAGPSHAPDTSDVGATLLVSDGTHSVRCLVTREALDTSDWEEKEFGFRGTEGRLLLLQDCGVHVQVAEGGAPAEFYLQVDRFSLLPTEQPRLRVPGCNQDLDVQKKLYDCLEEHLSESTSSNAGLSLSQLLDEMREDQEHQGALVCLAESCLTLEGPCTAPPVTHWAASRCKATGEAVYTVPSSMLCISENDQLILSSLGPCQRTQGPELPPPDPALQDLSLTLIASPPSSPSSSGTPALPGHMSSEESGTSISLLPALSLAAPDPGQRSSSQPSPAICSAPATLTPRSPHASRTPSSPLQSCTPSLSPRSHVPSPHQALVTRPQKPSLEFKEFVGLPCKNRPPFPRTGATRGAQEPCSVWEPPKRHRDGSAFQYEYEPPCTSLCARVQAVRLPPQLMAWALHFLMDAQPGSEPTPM
UniProt Q15526: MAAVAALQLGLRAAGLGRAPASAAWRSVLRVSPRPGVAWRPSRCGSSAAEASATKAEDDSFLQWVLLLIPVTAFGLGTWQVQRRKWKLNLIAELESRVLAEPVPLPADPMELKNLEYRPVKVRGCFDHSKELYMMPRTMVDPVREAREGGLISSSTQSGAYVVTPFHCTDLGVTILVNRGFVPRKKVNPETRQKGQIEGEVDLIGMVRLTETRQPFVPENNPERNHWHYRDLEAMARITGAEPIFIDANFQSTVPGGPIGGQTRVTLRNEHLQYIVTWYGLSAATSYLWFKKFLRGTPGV
UniProt Q99836, whole entry: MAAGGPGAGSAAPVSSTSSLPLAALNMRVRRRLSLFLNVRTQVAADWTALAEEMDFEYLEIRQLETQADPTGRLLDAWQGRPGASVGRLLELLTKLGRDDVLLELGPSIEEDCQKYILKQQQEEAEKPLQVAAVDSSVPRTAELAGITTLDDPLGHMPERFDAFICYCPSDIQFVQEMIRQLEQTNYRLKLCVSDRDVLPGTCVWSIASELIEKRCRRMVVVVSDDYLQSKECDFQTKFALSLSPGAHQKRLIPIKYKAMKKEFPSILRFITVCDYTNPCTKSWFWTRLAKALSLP
UniProt P54252: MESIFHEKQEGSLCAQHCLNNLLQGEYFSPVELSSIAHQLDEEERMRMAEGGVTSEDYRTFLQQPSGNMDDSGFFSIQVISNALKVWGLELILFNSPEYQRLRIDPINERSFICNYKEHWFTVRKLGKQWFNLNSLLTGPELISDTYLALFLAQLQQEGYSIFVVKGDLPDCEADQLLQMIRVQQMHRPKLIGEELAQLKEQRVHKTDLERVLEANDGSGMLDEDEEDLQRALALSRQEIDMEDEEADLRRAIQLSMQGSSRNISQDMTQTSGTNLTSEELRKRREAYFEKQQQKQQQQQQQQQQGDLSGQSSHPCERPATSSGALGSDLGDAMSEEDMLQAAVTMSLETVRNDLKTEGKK
UniProt Q96B45: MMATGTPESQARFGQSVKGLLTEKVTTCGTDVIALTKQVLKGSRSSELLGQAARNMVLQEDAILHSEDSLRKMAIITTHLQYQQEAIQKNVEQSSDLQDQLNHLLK
UniProt Q03518, whole entry: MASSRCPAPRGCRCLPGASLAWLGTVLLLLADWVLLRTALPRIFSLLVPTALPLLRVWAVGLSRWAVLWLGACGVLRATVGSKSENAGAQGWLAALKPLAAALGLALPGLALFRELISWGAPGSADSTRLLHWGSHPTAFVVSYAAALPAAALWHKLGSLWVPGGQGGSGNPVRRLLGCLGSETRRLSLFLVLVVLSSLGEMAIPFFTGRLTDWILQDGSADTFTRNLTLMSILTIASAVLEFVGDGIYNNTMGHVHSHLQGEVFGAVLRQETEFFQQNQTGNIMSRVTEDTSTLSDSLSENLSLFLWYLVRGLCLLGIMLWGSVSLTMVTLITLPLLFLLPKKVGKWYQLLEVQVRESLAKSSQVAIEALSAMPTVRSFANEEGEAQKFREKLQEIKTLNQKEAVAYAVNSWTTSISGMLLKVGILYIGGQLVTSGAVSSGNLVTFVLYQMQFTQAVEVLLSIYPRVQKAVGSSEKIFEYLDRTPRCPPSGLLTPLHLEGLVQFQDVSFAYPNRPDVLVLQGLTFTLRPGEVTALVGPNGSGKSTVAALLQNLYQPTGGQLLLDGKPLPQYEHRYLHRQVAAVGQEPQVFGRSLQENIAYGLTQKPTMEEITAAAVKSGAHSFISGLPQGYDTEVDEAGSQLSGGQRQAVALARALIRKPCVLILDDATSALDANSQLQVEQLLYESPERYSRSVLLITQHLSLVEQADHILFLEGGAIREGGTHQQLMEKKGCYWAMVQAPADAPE
UniProt Q9NRZ9: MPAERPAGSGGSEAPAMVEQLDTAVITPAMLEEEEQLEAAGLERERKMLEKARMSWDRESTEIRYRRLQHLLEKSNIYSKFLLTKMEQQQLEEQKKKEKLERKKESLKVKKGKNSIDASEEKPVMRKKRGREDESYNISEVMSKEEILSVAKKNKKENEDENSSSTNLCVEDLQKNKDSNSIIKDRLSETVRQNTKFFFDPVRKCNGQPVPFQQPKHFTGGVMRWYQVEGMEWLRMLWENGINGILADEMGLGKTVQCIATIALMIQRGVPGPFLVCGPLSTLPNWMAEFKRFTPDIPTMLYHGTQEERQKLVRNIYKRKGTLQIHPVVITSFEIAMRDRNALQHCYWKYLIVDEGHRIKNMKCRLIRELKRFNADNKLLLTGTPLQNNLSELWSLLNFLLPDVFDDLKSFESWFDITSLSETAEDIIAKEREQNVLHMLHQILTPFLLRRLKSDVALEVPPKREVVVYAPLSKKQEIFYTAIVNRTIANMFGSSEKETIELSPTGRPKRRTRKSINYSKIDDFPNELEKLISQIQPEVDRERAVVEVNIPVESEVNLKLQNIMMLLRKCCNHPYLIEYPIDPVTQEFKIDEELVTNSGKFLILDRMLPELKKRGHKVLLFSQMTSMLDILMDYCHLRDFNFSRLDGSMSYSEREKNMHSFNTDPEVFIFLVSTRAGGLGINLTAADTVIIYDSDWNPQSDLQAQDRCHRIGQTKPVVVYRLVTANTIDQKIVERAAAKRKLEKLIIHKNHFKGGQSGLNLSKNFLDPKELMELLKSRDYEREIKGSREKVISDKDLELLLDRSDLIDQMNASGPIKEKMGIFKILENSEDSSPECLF
UniProt Q14978: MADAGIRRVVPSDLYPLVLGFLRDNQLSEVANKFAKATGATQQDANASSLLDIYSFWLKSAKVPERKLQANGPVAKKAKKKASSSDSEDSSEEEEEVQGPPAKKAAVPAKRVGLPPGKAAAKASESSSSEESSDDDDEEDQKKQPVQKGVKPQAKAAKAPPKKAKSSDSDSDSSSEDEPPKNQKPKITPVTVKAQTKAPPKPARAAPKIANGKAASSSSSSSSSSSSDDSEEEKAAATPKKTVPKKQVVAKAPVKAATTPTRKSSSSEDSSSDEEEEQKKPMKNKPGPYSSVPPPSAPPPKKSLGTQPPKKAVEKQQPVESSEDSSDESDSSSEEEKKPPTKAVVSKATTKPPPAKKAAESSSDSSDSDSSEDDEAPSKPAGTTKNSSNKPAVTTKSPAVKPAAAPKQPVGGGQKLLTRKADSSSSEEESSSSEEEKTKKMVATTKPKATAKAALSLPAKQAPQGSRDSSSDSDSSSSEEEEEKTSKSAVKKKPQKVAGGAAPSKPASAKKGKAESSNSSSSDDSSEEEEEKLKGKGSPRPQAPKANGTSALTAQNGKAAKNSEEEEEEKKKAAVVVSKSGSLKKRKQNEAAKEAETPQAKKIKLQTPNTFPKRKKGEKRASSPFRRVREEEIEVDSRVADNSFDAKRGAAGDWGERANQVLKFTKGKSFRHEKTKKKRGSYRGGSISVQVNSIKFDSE
UniProt Q03701: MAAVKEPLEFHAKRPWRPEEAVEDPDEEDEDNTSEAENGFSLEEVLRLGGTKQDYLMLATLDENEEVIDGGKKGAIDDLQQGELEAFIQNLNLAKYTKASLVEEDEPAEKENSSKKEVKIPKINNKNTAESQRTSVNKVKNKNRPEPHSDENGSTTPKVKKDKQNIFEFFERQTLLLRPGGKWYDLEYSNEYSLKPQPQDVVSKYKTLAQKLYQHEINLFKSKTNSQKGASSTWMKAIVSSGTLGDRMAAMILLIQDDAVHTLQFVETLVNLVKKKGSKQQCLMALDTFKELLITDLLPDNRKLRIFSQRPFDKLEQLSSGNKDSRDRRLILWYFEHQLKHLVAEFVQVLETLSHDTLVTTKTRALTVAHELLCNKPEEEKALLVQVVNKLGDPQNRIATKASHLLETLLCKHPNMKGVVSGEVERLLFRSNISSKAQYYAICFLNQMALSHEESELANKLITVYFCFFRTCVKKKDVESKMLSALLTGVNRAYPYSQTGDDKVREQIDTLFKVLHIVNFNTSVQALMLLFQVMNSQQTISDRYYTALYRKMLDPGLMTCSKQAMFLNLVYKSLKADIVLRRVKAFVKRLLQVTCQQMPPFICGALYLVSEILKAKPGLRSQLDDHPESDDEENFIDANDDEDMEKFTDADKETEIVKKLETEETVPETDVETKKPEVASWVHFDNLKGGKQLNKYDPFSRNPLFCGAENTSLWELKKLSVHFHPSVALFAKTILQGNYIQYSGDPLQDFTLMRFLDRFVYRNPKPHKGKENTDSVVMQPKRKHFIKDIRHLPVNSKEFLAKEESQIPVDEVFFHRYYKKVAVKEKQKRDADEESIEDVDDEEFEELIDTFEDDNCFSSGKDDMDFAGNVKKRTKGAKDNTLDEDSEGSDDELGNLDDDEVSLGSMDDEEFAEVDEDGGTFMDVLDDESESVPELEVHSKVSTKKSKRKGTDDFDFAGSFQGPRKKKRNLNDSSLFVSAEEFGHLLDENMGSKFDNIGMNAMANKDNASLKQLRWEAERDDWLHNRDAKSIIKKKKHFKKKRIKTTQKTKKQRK
UniProt Q13617, whole entry: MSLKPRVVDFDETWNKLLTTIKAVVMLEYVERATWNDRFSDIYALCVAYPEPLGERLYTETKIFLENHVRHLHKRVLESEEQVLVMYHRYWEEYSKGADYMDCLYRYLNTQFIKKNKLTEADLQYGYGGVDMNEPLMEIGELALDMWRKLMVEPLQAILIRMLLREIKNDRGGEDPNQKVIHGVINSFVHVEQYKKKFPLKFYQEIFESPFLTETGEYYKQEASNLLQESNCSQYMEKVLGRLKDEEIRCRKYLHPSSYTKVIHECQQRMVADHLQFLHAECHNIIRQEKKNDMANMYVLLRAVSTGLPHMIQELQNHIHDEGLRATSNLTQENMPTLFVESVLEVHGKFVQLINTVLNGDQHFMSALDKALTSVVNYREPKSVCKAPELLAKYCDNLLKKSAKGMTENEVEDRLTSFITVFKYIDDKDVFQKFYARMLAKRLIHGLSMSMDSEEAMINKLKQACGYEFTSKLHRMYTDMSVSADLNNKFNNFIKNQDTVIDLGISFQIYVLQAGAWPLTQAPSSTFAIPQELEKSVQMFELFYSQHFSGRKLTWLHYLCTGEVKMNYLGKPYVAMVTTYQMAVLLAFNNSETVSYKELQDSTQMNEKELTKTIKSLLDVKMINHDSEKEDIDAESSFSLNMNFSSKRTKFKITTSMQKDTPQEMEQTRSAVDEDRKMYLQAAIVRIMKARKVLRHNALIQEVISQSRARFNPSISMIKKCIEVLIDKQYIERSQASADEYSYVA
UniProt Q8WUA7: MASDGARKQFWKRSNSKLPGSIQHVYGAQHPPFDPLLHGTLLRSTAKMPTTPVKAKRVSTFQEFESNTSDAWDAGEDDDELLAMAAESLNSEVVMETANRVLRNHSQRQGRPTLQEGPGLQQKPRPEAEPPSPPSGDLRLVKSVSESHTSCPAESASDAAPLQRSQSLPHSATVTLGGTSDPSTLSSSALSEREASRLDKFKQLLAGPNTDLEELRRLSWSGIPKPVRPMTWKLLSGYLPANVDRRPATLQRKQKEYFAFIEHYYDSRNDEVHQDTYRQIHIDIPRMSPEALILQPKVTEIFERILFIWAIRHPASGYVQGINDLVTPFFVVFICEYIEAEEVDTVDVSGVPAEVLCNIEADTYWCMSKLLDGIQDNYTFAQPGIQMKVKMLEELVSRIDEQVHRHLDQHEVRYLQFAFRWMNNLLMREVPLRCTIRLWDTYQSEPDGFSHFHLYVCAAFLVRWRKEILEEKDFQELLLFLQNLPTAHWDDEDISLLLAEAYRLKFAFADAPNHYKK

Compound: Nc1ncnc2c1ncn2[C@@H]1O[C@H](COP(=O)(O)OP(=O)(O)NP(=O)(O)O)[C@@H](O)[C@H]1O [adenylyl imidodiphosphate]
Assay: NP40-soluble protein abundance relative to vehicle (solubility fold change) (ratio); higher = more soluble protein in presence of AMP-PNP
Summary of the method: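 Crude Jurkat lysate, prepared by Dounce homogenisation, was exposed to eight concentrations from 0.1 to 10 mM for 10 min at room temperature and then 3 min at 37 °C. Solubilisation used 0.8% NP40 with benzonase for 60 min at 4 °C, followed by ultracentrifugation and TMT labelling of the supernatant for LC-MS/MS. After vsn normalisation of intensities, each value is the fold change against the detergent-processed vehicle within each replicate, across three independent experiments.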

Target	NP40-soluble protein abundance (concentration: 1mM)	NP40-soluble protein abundance (concentration: 2mM)	NP40-soluble protein abundance (concentration: 4mM)	NP40-soluble protein abundance (concentration: 6mM)	NP40-soluble protein abundance (concentration: 8mM)	NP40-soluble protein abundance (concentration: 10mM)
A0A0A0MRR3|Q7Z7C8 and related entries (UniProt Q7Z7C8)	1.02 ± 0.011	1.1 ± 0.09	1.04 ± 0.025	1 ± 0.017	1.01 ± 0.039	1.03 ± 0.045
A0A087WXM6|A0A0A6YYL6|J3KRX5 and related entries (UniProt P18621)	0.984 ± 0.07	0.958 ± 0.046	0.936 ± 0.071	0.871 ± 0.025	0.787 ± 0.052	0.962 ± 0.11
A0A0C4DGT6|Q96AP0 and related entries (UniProt Q96AP0)	1.03 ± 0.026	1.04 ± 0.039	1.06 ± 0.047	1.02 ± 0.012	1.02 ± 0.032	1.03 ± 0.032
A0A087WYS9|Q15526 and related entries (UniProt Q15526)	1.03 ± 0.051	0.995 ± 0.092	1.03 ± 0.072	1.01 ± 0.032	1.01 ± 0.029	0.991 ± 0.041
A0A0A0MTS7|Q8WZ42-12 (UniProt Q8WZ42)	0.981 ± 0.023	0.984 ± 0.022	0.9833 ± 0.0072	0.989 ± 0.03	0.988 ± 0.043	1 ± 0.023
A0A0A0MS70|A0A0A0MST0|H0Y4G9 and related entries (UniProt Q99836)	0.99 ± 0.013	0.965 ± 0.025	0.999 ± 0.035	0.987 ± 0.053	0.984 ± 0.04	0.994 ± 0.03
A0A087X1A8|F5H211 and related entries (UniProt P54252)	1 ± 0.035	1.03 ± 0.083	0.966 ± 0.054	0.949 ± 0.038	0.918 ± 0.053	0.937 ± 0.074
A0A0B4J1R7|Q96B45 (UniProt Q96B45)	0.999 ± 0.017	1.04 ± 0.054	1.01 ± 0.03	0.991 ± 0.024	0.958 ± 0.038	0.982 ± 0.018
A0A140T9T7|Q03518 (UniProt Q03518)	1.02 ± 0.033	0.987 ± 0.075	1.002 ± 0.0072	0.973 ± 0.019	0.995 ± 0.032	0.972 ± 0.034
A0A0B4J1V9|Q9NRZ9 and related entries (UniProt Q9NRZ9)	1.01 ± 0.037	0.991 ± 0.027	1.06 ± 0.042	1.08 ± 0.047	1.11 ± 0.063	1.09 ± 0.05
A0A0A0MRM9|Q14978-2|Q14978 and related entries (UniProt Q14978)	1.07 ± 0.025	1.18 ± 0.098	1.12 ± 0.03	1.26 ± 0.051	1.2 ± 0.053	1.29 ± 0.09
A0A087X1N2|Q03701 (UniProt Q03701)	1.02 ± 0.023	1.04 ± 0.05	1.03 ± 0.03	1.05 ± 0.04	1.06 ± 0.069	1.09 ± 0.12
A0A0A0MTN0|Q13617 and related entries (UniProt Q13617)	0.947 ± 0.02	0.896 ± 0.089	0.9136 ± 0.0062	0.935 ± 0.015	0.92 ± 0.018	0.894 ± 0.033
A0A0D9SF53|A0A0D9SFB3|A0A0D9SG12|O00571 (UniProt O00571)	1.04 ± 0.023	1.02 ± 0.039	1.04 ± 0.04	1.04 ± 0.07	1.1 ± 0.075	1.09 ± 0.092
A0A0A0MRY0|Q8WUA7 and related entries (UniProt Q8WUA7)	1.03 ± 0.042	1.05 ± 0.026	1 ± 0.025	1.01 ± 0.021	0.994 ± 0.011	1.05 ± 0.076

2 neighbouring entries already listed, quoted:
Target	NP40-soluble protein abundance (concentration: 1mM)	NP40-soluble protein abundance (concentration: 2mM)	NP40-soluble protein abundance (concentration: 4mM)	NP40-soluble protein abundance (concentration: 6mM)	NP40-soluble protein abundance (concentration: 8mM)	NP40-soluble protein abundance (concentration: 10mM)
A0A0B4J1R7|Q96B45 (UniProt Q96B45)	0.999 ± 0.017	1.04 ± 0.054	1.01 ± 0.03	0.991 ± 0.024	0.958 ± 0.038	0.982 ± 0.018
A0A140T9T7|Q03518 (UniProt Q03518)	1.02 ± 0.033	0.987 ± 0.075	1.002 ± 0.0072	0.973 ± 0.019	0.995 ± 0.032	0.972 ± 0.034
